Some of the results follow. Residues, ends and D or L forms follow the SMILES beside them. *: point of attachment. Cbz = O=C(OCc1ccccc1)*
Legend:
Test in all cases: log2 fold change, soluble protein after heating vs DMSO (PISA); higher = thermal stabilisation; K562 cells, 10 uM, 30 min; active = over 0.2 and 3.5 SD of the protein, either way, in both replicates (recomputed)
[1] = compound: C1COCCN1CCN2C3=CC=CC=C3N=C2NC(=O)C4=CC(=CC=C4)[N+](=O)[O-] [IRAK-1-4 Inhibitor I]
Procedure, shortened: (§1)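 For each measurement, 10 μM compound was applied for 30 min to K562 cells at 2×10^6 cells/mL. Aliquots were heated for 3 min across 48°C-58°C, pooled, and extracted in PBS with 0.5% NP-40 at 4°C; the supernatant after 21,000xg for 90 min was soluble protein. This was quantified by TMTpro 16plex LC-MS/MS with channel sums equalised, and thermal stability was reported relative to control samples from duplicates, on a log2 fold-change scale.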

Protein sequences, listed by entry. Tags and fused reporters are not part of them. Lines headed by an entry give the natural chain unless they say otherwise; changes in a name come on top.
UniProt P49368: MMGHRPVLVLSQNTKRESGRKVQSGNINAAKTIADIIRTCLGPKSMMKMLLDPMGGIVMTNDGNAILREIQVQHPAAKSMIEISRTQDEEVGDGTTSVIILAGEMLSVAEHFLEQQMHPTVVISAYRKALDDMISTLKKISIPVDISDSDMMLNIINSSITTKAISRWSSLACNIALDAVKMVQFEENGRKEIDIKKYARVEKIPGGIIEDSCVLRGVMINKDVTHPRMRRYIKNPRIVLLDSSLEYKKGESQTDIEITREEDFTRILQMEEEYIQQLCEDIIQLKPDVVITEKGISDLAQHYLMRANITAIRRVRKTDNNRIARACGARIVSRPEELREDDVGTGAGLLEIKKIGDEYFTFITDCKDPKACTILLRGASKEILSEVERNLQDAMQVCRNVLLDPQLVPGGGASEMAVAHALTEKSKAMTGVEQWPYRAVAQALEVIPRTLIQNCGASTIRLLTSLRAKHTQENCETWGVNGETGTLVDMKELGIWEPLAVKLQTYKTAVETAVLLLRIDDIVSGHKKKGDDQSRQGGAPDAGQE
UniProt Q4G0I0: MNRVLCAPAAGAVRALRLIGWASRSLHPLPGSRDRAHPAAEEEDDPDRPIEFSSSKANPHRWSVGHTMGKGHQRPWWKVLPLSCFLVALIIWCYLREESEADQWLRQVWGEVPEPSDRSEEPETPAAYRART
UniProt P50991: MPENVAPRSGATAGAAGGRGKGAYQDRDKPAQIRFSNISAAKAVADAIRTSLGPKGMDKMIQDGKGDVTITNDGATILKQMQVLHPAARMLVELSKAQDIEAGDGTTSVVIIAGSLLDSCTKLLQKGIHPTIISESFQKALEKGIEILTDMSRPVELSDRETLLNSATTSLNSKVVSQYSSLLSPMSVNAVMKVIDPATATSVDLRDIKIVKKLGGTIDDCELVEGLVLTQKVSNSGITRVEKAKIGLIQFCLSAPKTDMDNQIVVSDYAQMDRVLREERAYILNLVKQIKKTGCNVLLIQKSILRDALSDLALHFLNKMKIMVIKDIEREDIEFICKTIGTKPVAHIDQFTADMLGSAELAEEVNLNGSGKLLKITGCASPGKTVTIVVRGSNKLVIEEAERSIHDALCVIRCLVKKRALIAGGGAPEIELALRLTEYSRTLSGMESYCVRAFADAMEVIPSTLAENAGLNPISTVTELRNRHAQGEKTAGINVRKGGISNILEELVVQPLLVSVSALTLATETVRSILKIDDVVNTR
UniProt P49427: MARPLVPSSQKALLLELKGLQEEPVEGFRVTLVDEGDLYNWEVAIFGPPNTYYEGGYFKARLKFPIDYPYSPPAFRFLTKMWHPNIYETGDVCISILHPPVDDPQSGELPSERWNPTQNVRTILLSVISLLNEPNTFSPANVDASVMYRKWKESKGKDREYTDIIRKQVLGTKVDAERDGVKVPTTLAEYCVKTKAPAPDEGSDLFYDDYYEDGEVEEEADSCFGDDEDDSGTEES
UniProt Q13185: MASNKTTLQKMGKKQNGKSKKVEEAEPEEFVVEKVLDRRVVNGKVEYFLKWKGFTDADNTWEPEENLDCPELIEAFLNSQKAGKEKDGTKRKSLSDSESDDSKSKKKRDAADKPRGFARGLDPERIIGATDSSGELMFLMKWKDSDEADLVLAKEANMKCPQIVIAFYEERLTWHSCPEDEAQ
UniProt Q96MW1: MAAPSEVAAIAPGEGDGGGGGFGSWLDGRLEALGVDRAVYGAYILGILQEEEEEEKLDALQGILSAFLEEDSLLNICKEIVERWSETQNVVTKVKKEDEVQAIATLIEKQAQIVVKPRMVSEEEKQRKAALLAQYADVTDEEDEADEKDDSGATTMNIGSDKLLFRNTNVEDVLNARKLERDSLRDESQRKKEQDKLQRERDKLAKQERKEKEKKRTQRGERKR
UniProt Q9BRT8: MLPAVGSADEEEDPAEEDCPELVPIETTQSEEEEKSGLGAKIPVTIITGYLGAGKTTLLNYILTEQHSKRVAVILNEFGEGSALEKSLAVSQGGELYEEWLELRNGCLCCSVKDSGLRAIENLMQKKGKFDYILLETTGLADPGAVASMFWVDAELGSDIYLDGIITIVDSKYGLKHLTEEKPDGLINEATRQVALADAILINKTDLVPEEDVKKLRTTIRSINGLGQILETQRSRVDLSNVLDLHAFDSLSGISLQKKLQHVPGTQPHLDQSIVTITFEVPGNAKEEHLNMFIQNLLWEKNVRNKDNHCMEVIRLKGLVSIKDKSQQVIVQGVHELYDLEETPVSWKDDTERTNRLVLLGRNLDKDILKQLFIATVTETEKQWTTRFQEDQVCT
UniProt Q9BV29: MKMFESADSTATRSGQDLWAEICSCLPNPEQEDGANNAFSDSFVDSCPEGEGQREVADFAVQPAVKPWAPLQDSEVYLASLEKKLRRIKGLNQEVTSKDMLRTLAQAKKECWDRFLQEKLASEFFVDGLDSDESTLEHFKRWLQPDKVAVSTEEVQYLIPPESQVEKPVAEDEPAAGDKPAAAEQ
UniProt Q8WUD4: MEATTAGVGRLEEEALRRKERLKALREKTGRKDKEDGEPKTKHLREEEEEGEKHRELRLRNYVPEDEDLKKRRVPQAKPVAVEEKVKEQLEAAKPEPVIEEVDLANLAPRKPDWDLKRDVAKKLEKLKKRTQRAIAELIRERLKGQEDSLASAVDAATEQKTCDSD
UniProt Q4VC31: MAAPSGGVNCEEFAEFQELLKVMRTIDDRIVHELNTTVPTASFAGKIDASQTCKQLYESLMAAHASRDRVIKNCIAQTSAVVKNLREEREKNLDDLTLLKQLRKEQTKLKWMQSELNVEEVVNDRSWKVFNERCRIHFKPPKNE
UniProt P78371: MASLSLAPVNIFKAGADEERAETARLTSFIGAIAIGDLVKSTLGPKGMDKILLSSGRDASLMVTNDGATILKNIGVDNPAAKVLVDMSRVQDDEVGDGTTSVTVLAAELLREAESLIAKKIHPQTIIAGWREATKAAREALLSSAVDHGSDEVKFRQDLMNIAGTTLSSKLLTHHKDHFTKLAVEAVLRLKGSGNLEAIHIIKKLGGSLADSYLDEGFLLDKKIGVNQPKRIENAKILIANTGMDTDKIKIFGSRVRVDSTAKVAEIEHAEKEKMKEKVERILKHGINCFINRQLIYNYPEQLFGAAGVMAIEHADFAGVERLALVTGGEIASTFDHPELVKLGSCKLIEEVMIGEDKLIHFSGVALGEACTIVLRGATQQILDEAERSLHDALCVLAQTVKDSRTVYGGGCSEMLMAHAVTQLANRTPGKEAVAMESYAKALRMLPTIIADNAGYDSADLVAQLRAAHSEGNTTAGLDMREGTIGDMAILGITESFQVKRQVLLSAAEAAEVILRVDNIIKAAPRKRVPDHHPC
UniProt Q9HA77: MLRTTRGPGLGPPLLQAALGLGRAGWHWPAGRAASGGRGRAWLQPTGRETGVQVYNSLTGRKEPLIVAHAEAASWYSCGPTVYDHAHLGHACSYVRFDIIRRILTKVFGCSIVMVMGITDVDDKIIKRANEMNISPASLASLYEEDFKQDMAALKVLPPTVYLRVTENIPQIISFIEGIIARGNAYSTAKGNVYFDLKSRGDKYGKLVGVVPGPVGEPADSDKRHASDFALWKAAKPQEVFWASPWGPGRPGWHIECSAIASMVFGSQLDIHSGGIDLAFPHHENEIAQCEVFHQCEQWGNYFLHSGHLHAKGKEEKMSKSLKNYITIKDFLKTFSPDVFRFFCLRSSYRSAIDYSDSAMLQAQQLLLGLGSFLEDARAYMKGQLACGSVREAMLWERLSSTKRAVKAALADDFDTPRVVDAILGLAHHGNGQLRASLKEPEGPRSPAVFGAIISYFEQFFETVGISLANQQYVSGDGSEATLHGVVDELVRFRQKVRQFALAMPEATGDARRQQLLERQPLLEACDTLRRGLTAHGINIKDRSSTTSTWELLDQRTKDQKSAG
UniProt P60953, whole entry, looked up: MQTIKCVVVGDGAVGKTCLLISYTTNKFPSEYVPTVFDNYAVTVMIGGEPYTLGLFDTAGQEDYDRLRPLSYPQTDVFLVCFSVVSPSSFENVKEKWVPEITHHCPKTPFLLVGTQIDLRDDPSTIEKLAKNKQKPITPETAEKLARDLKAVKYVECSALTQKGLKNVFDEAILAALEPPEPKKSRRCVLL
UniProt Q8IWD4: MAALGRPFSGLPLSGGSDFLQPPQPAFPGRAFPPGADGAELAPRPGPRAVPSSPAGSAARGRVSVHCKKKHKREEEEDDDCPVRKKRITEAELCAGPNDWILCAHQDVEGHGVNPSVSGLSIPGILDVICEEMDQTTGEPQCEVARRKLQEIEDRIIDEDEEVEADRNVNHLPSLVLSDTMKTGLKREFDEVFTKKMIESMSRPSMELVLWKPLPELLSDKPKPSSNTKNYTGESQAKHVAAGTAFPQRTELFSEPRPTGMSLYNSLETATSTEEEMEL
UniProt Q86X55: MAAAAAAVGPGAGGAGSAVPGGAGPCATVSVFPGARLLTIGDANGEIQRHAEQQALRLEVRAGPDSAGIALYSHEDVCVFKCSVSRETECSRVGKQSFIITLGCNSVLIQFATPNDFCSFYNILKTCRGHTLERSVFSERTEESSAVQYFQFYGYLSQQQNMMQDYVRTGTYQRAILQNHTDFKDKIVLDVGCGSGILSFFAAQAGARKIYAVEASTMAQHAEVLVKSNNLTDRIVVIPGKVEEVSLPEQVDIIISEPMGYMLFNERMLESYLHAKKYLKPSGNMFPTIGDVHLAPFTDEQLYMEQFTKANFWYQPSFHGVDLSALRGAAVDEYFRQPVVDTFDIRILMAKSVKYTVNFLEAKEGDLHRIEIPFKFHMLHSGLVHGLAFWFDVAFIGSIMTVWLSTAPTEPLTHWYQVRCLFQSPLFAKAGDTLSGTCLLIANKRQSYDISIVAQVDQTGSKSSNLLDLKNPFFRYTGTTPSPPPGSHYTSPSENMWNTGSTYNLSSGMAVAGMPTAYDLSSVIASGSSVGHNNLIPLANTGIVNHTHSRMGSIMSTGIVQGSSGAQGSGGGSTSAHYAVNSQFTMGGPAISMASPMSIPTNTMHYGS
UniProt Q8N4J0: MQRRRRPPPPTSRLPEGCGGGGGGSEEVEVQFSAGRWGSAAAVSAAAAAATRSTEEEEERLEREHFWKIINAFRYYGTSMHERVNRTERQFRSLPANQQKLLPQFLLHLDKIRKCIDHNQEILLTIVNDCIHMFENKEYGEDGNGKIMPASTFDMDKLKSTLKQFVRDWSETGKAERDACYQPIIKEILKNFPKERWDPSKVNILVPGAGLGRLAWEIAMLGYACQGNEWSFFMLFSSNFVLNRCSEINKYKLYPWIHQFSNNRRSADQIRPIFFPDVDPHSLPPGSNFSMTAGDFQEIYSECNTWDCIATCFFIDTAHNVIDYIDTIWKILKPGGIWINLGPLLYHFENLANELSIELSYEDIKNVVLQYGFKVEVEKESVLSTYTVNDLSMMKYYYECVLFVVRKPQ

[2] = compound: C=CC(=O)N1CCC[C@@H](n2nc(-c3ccc(Oc4ccccc4)cc3)c3c(N)ncnc32)C1 [ibrutinib]
Procedure, shortened: as §1

[3] = compound: CC(=O)c1cnc2ccc(-c3cc(Cl)c(O)c(Cl)c3)nc2c1N[C@H]1CC[C@H](CN(C)C)CC1
Procedure, shortened: as §1

[4] = compound: CC(C)(C)Cn1c(N)nc2ccc(-c3[nH]c(C(C)(C)C)nc3-c3ccc(F)cc3)nc21 [ralimetinib]
Procedure, shortened: as §1

[5] = compound: CC(C)(O)CC(=O)NCCn1ccc2ncnc(Nc3ccc(Oc4cccc(C(F)(F)F)c4)c(Cl)c3)c21
Procedure, shortened: as §1

[6] = compound: CC(C)C1=C2N=C(C=C(N2N=C1)NCC3=CC=CC=C3)NCCCCCCN
Procedure, shortened: as §1

[7] = compound: CC(C)C[C@@H](C=O)NC(=O)[C@H](CC(C)C)NC(=O)[C@H](CC(C)C)NC(=O)OCc1ccccc1
Procedure, shortened: as §1

[8] = compound: CC(C)N(C[C@H]1O[C@@H](n2cnc3c(N)ncnc32)[C@H](O)[C@@H]1O)[C@H]1C[C@@H](CCc2nc3cc(C(C)(C)C)ccc3[nH]2)C1 [pinometostat]
Procedure, shortened: as §1

[9] = compound: CC1=C(C(CC(=O)N1)C2=CC=C(C=C2)C(F)(F)F)C(=O)NC3=C(C=C4C(=C3)C=NN4)F
Procedure, shortened: as §1

[10] = compound: CC1=C(C2=C(C=C1)C(=O)C3=CC=CC=C3N2CCCN)C
Procedure, shortened: as §1

[11] = compound: CC1=C(C=C(C=C1)NC(=O)C2=CC(=CC=C2)C(C)(C)C#N)NC3=CC4=C(C=C3)N=CN(C4=O)C
Procedure, shortened: as §1

[12] = compound: CC1=C(C=C(C=C1)NC(=O)C2=CC(=CC=C2)N(C)C)NC(=O)C3=CC=C(C=C3)O
Procedure, shortened: as §1

[13] = compound: CC1=CC=C(C=C1)SC2=C3C=C(SC3=CN=C2)C(=O)N
Procedure, shortened: as §1

[14] = compound: CC1=NC(=CC=C1)C2=C(N=C(N2)C(C)(C)C)C3=CC4=NC=CN=C4C=C3
Procedure, shortened: as §1

[15] = compound: CCCCN(Cc1ccc(C(=O)NO)cc1)C(=O)Nc1ccccc1 [Nexturastat A]
Procedure, shortened: as §1

[16] = compound: CCCS(=O)(=O)Nc1ccc(F)c(C(=O)c2c[nH]c3ncc(-c4ccc(Cl)cc4)cc23)c1F [vemurafenib]
Procedure, shortened: as §1

[17] = compound: CCCS(=O)(=O)Nc1ccc(F)c(C(=O)c2c[nH]c3ncc(Cl)cc23)c1F
Procedure, shortened: as §1

[18] = compound: CCCc1cc(C)[nH]c(=O)c1CNC(=O)c1cc(-c2ccnc(N3CCN(C)CC3)c2)cc2c1cnn2C(C)C
Procedure, shortened: as §1

[19] = compound: CCN(CC)Cc1ccc2cc(COC(=O)Nc3ccc(C(=O)NO)cc3)ccc2c1 [givinostat]
Procedure, shortened: as §1

[20] = compound: CCN(CCCOc1ccc2c(Nc3cc(CC(=O)Nc4cccc(F)c4)[nH]n3)ncnc2c1)CCOP(=O)(O)O [barasertib]
Procedure, shortened: as §1

Measured: log2 fold change

CCT3 (UniProt P49368)
inactive: [1] 0.034 | [2] 0.019 | [3] -0.002 | [4] 0.006 | [5] 0.03 | [6] 0.03 | [7] -0.033 | [8] -0.023 | [9] 0.038 | [10] 0.031 | [11] -0.032 | [12] 0.003 | [13] -0.019 | [14] -0.012 | [15] 0.028 | [16] -0.006 | [17] -0.043 | [18] -0.017 | [19] -0.024 | [20] -0.01

CCSMST1 (UniProt Q4G0I0)
inactive: [1] -0.012 | [2] -0.084 | [3] 0.032 | [4] -0.049 | [5] -0.007 | [6] 0.074 | [7] 0.113 | [8] 0 | [9] -0.027 | [10] 0.133 | [11] 0.107 | [12] -0.062 | [13] 0.059 | [14] 0.008 | [15] 0.043 | [16] 0.073 | [17] 0.014 | [18] -0.039 | [19] -0.014 | [20] 0.021

CCT4 (UniProt P50991)
inactive: [1] -0.001 | [2] -0.038 | [3] 0.005 | [4] 0.011 | [5] -0.044 | [6] 0.007 | [7] -0.048 | [8] -0.026 | [9] 0.052 | [10] 0.03 | [11] 0.056 | [12] 0.007 | [13] 0.071 | [14] 0.015 | [15] -0.138 | [16] 0.016 | [17] 0.128 | [18] 0.031 | [19] -0.049 | [20] -0.022

CDC34 (UniProt P49427)
inactive: [1] -0.066 | [2] -0.062 | [3] -0.034 | [4] 0.006 | [5] -0.125 | [6] -0.177 | [7] -0.068 | [8] -0.009 | [9] -0.002 | [10] 0.127 | [11] 0.042 | [12] 0.018 | [13] 0.032 | [14] -0.096 | [15] 0.096 | [16] 0.047 | [17] 0 | [18] 0.102 | [19] 0.359 | [20] 0.094

CBX3 (UniProt Q13185)
inactive: [1] 0.004 | [2] 0.008 | [3] -0.059 | [4] -0.003 | [5] -0.009 | [6] -0.106 | [7] 0.016 | [8] -0.102 | [9] 0.015 | [10] -0.182 | [11] 0.129 | [12] -0.005 | [13] -0.089 | [14] 0.121 | [15] -0.032 | [16] 0.027 | [17] -0.04 | [18] 0.25 | [19] -0.093 | [20] 0.03

CCDC43 (UniProt Q96MW1)
inactive: [1] 0.017 | [2] -0.046 | [3] 0.116 | [4] -0.034 | [5] 0 | [6] 0.045 | [7] 0.043 | [8] -0.079 | [9] 0.04 | [10] -0.029 | [11] -0.041 | [12] 0.022 | [13] 0.019 | [14] 0.035 | [15] -0.078 | [16] 0.004 | [17] 0.024 | [18] -0.033 | [19] 0.02 | [20] 0.03

CBWD1 (UniProt Q9BRT8)
inactive: [1] -0.037 | [2] 0.107 | [3] -0.002 | [4] 0.134 | [5] -0.099 | [6] -0.259 | [7] 0.199 | [8] 0.126 | [9] -0.033 | [10] -0.007 | [11] 0.011 | [12] -0.064 | [13] -0.066 | [14] -0.05 | [15] 0.097 | [16] 0.053 | [17] 0.139 | [18] 0.058 | [19] 0.013 | [20] -0.037

Copied from the results shown (2 entries):
CCT4 (UniProt P50991)
inactive: [1] -0.001 | [2] -0.038 | [3] 0.005 | [4] 0.011 | [5] -0.044 | [6] 0.007 | [7] -0.048 | [8] -0.026 | [9] 0.052 | [10] 0.03 | [11] 0.056 | [12] 0.007 | [13] 0.071 | [14] 0.015 | [15] -0.138 | [16] 0.016 | [17] 0.128 | [18] 0.031 | [19] -0.049 | [20] -0.022

CDC34 (UniProt P49427)
inactive: [1] -0.066 | [2] -0.062 | [3] -0.034 | [4] 0.006 | [5] -0.125 | [6] -0.177 | [7] -0.068 | [8] -0.009 | [9] -0.002 | [10] 0.127 | [11] 0.042 | [12] 0.018 | [13] 0.032 | [14] -0.096 | [15] 0.096 | [16] 0.047 | [17] 0 | [18] 0.102 | [19] 0.359 | [20] 0.094

Next part.

CCDC32 isoform 2 (UniProt Q9BV29)
inactive: [1] 0.05 | [2] 0.022 | [3] -0.07 | [4] 0.01 | [5] 0 | [6] 0.045 | [7] -0.068 | [8] -0.056 | [9] 0.011 | [10] 0.004 | [11] 0.004 | [12] -0.008 | [13] 0.022 | [14] 0.053 | [15] 0.069 | [16] -0.012 | [17] -0.017 | [18] -0.232 | [19] -0.004 | [20] -0.018

CCDC12 (UniProt Q8WUD4)
inactive: [1] 0.088 | [2] 0.037 | [3] 0.084 | [4] -0.114 | [5] 0.009 | [6] 0.168 | [7] 0.018 | [8] -0.004 | [9] 0.017 | [10] 0.009 | [11] 0.017 | [12] -0.001 | [13] 0.059 | [14] 0 | [15] 0.028 | [16] 0.027 | [17] 0.038 | [18] 0.022 | [19] -0.026 | [20] -0.02

CCDC58 (UniProt Q4VC31)
inactive: [1] 0.07 | [2] 0.016 | [3] 0.007 | [4] -0.06 | [5] 0.022 | [6] 0.07 | [7] -0.076 | [8] -0.048 | [9] 0.045 | [10] -0.02 | [11] -0.03 | [12] 0.008 | [13] 0.076 | [14] 0.011 | [15] -0.085 | [16] -0.043 | [17] 0.005 | [18] -0.031 | [19] -0.035 | [20] -0.031

CCT2 (UniProt P78371)
inactive: [1] 0.021 | [2] -0.017 | [3] 0.026 | [4] 0.008 | [5] -0.018 | [6] 0.013 | [7] -0.022 | [8] -0.028 | [9] 0.014 | [10] 0.007 | [11] 0.009 | [12] 0.003 | [13] 0.009 | [14] 0.028 | [15] -0.078 | [16] 0.023 | [17] -0.009 | [18] -0.008 | [19] -0.02 | [20] -0.021

CARS2 (UniProt Q9HA77)
inactive: [1] -0.078 | [2] -0.004 | [3] 0.012 | [4] -0.026 | [5] 0.072 | [6] 0.06 | [7] -0.047 | [8] -0.006 | [9] 0.038 | [10] 0.039 | [11] -0.019 | [12] 0.003 | [13] -0.036 | [14] -0.016 | [15] -0.083 | [16] -0.043 | [17] -0.021 | [18] -0.006 | [19] -0.02 | [20] 0.028

CDC42 (UniProt P60953)
inactive: [1] 0.095 | [2] 0.123 | [3] 0.068 | [4] 0.025 | [5] -0.006 | [6] 0.153 | [7] -0.099 | [8] -0.11 | [9] 0.085 | [10] 0.011 | [11] -0.006 | [12] -0.014 | [13] 0.033 | [14] 0.083 | [15] 0.008 | [16] 0 | [17] 0.026 | [18] 0.074 | [19] -0.123 | [20] -0.031

CCDC117 (UniProt Q8IWD4)
inactive: [1] 0.018 | [2] -0.006 | [3] -0.06 | [4] -0.16 | [5] 0.001 | [6] -0.034 | [7] 0.179 | [8] 0.063 | [9] 0.077 | [10] -0.089 | [11] -0.067 | [12] -0.013 | [13] -0.028 | [14] 0.027 | [15] 0.123 | [16] 0 | [17] -0.013 | [18] 0.068 | [19] 0.079 | [20] -0.003

CARM1 (UniProt Q86X55)
inactive: [1] 0.013 | [2] -0.008 | [3] 0.017 | [4] -0.058 | [5] -0.01 | [6] 0.031 | [7] -0.051 | [8] -0.067 | [9] -0.008 | [10] 0.016 | [11] 0.006 | [12] 0.005 | [13] 0.01 | [14] 0.01 | [15] -0.074 | [16] -0.014 | [17] -0.008 | [18] -0.033 | [19] -0.018 | [20] -0.005

CARNMT1 (UniProt Q8N4J0)
inactive: [1] 0.022 | [2] 0.006 | [3] -0.054 | [4] -0.023 | [5] -0.063 | [6] -0.036 | [7] -0.02 | [8] -0.016 | [9] -0.059 | [10] 0.045 | [11] 0.031 | [12] -0.033 | [13] 0.022 | [14] -0.002 | [15] -0.117 | [16] 0.036 | [17] 0.094 | [18] 0.064 | [19] -0.033 | [20] 0.027

From the supplement of paper PMC10849652
